Assay results taken from the supplement of paper PMC3334620.
In all, about 33,000 sequences were measured (“E-score (-0.5 to 0.5)”: median about -0.016, highest 2% from about 0.3 on). The list shows a part of the results.

target: T1, Yer184c (UniProt P39961); assay: PBM E-score (8-mer binding enrichment) (E-score (-0.5 to 0.5)); higher = stronger / more preferred TF binding; settings: protein concentration: 100 nM; construct: GST-full length
T1 sequence: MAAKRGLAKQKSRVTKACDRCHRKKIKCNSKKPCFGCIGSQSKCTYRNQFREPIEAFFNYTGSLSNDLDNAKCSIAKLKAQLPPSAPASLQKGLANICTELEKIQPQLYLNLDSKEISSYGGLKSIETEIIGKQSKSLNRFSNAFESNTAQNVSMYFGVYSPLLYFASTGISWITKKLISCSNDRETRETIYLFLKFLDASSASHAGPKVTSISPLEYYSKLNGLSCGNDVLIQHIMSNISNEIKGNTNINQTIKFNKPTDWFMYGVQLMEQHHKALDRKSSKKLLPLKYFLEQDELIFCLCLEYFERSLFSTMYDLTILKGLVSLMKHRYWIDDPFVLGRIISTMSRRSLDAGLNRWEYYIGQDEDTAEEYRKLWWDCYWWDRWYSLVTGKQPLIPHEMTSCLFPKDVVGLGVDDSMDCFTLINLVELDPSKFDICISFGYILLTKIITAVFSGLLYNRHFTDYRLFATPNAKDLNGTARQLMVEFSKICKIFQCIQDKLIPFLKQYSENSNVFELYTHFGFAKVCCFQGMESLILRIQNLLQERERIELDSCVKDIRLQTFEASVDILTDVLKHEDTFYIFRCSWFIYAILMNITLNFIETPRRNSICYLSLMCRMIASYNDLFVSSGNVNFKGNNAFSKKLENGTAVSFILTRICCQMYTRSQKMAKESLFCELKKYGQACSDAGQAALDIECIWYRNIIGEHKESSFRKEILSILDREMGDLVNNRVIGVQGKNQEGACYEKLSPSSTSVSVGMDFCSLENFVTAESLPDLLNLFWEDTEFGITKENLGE
Description: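 Universal 'all 10-mer' protein binding microarrays (Agilent AMADID 015681) probed with GST-tagged S. cerevisiae TFs (full-length or DBD) made by in vitro transcription/translation (PURExpress), about 100-200 nM. Bound TF was detected with fluorescent anti-GST. Each ungapped 8-mer (which stands for itself and its reverse complement) is scored by the PBM enrichment score (E-score), a modified Wilcoxon-Mann-Whitney statistic from -0.5 to +0.5, computed with the Universal PBM Analysis Suite. Scale: above 0.35 generally sequence-specific binding.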

In order of rising “PBM E-score” value:
1. GCACCCCA  -0.33
2. ACCGCACA  -0.307
3. AAGCCCCA  -0.302
4. CTACCCTC  -0.288
5. CTGGGACC  -0.278
6. GCCCCGCA  -0.268
7. CCCACCAG  -0.265
8. GTCAGCGA  -0.262
9. AATCAGGG  -0.259
10. GCCCTCGA  -0.255
11. ACGACGTC  -0.253
12. ACCTGTCT  -0.247
13. ACTTAGCT  -0.246
14. ACGAGCCT  -0.239
15. GAGAGGGA  -0.23
16. AACTCCAG  -0.214
17. AAAGGCTA  -0.211
18. CCCGTAGA  -0.211
19. ATGAGTCA  -0.203
20. ATGGGCAG  -0.201
21. ACACCCCG  -0.197
22. ACCCCTGA  -0.195
23. GGCTTAGA  -0.186
24. GCCTAGGA  -0.182
25. ACCTATTC  -0.181
26. CATTCCAC  -0.179
27. AGCGGCCT  -0.179
28. CTGTAACA  -0.171
29. GCGTCACA  -0.162
30. GTGATAGA  -0.15
31. AGCAAGTC  -0.143
32. AGCGTATC  -0.14
33. AGGCCAAT  -0.138
34. CCCTTTGC  -0.137
35. CGCCCCTA  -0.133
36. AGCCAAGA  -0.128
37. ACCTTAAT  -0.124
38. AATAAGGA  -0.121
39. CAAGCATG  -0.115
40. AACATAGG  -0.115
41. GGCAAGCA  -0.114
42. ACATGCCC  -0.114
43. ACGTAATC  -0.113
44. CCTCCAAA  -0.112
45. ACCACGGT  -0.112
46. CCTTTGCA  -0.109
47. AAGGTCAT  -0.106
48. AGTTGGCA  -0.103
49. AGTAAGAG  -0.102
50. TACGGCCA  -0.1
51. CCCGTCTC  -0.0981
52. ACATCCCA  -0.0973
53. GCTGCGCA  -0.096
54. AACTTAGC  -0.0959
55. GTCATTGA  -0.0947
56. AGCTAACA  -0.0928
57. CTGCTCAA  -0.0916
58. CTGCTTGC  -0.0904
59. ACTTCACT  -0.0893
60. ACGGGACG  -0.0892
61. AATCAGAG  -0.0887
62. ATGGGTTG  -0.0884
63. ACAAGGGA  -0.0864
64. ACGACGGC  -0.0816
65. ACGCTCGA  -0.0816
66. ACACACGT  -0.0782
67. ATTGGACG  -0.0777
68. ACTGTGAC  -0.0772
69. ATGACTCG  -0.0759
70. GTCAGTGA  -0.0735
71. AGTCCTAA  -0.0699
72. ACACGAGC  -0.069
73. CCACATCA  -0.0682
74. GATTGGCA  -0.0664
75. CTAAGCAG  -0.0601
76. GCGATCAA  -0.057
77. CACACCGC  -0.0491
78. ACGGAGCT  -0.0489
79. TCAATCCA  -0.0474
80. GTCATGTA  -0.0449
81. ATCCAAGG  -0.0413
82. AGCTAGAC  -0.028
83. ATCTATCG  -0.0264
84. AGTCGACC  -0.0151
85. CATTCGCG  -0.0115
86. CGTAGGCC  -0.0105
87. TGGACTAA  -0.00992
88. CAATAGAC  -0.00121
89. AGGTCTAA  0.00634
90. GGACTTAC  0.00774
91. GGATTGCC  0.00854
92. GCACCCAA  0.0119
93. ATCTGTAA  0.0139
94. CCAAACGA  0.015
95. ATGGATTC  0.0188
96. AGTGACGG  0.0316
97. ATGAATTG  0.0349
98. ATAACTGC  0.0353
99. CGGTGCCC  0.0372
100. CGGACTGA  0.0412
101. ATCCCTAC  0.0439
102. CGACGGGC  0.0443
103. ACTCTGTG  0.0457
104. AGCTGACA  0.0472
105. CCGCGATC  0.0479
106. CGTACTGA  0.0516
107. AACAGTAG  0.0519
108. AATCGGGC  0.0528
109. GGATGACA  0.0539
110. GCGAGAAC  0.0561
111. ACAATCCA  0.0596
112. CCGTTAGG  0.0597
113. AGATAAAG  0.0667
114. ACAATCGC  0.0673
115. AACCCCGG  0.071
116. CCAGCAAC  0.0735
117. CAATGTCA  0.0764
118. CTTAGTTA  0.0782
119. GATTCTAA  0.0814
120. CAATTCAA  0.0828
121. ACAGCACA  0.0855
122. AACCATAG  0.0864
123. ATTTTCTG  0.0877
124. AGTTGTAG  0.0893
125. GTAACACA  0.0912
126. TCACGGCA  0.096
127. CAATTGAG  0.0961
128. ACTTTGCC  0.0966
129. ACGTCGGC  0.1
130. TAAACTGA  0.101
131. GCGGAAGC  0.105
132. GGACTAAA  0.105
133. CCCGAAGA  0.105
134. AGAGAAAA  0.108
135. GCTAAGTA  0.108
136. ATATTCAG  0.111
137. ACTATCGG  0.112
138. CAAGTCCG  0.119
139. ATGAGATA  0.124
140. AAAAAAGT  0.126
141. AGCAAAAA  0.126
142. CAGCTGCC  0.134
143. GTATATAA  0.134
144. CAAGAGAA  0.136
145. CCGTATTC  0.141
146. ACCAGCAA  0.144
147. ACAGTCGG  0.145
148. AAAATACT  0.145
149. CACTACGG  0.148
150. AATTGAGT  0.152
151. AACTAACG  0.161
152. CCGAGGCG  0.171
153. TAACACGA  0.171
154. GCATCCGA  0.176
155. AAAGTCGC  0.184
156. ACATATAT  0.187
157. TCCGAGGA  0.196
158. CGATCGGC  0.196
159. AGTGTTTA  0.201
160. CTAACGGC  0.207
161. GCAATGAA  0.22
162. CGGATTTA  0.237
163. ATTTAAAT  0.243
164. TCCGATCA  0.255
165. CGGCTTTA  0.264
166. AAGTCCGG  0.295
167. ATTTAAAG  0.302
168. AAATATGT  0.304
169. AAATCGGA  0.308
170. CTTCCGTA  0.322
171. CCGGTCCG  0.338
172. ATTTCGGC  0.373
